No constants are given. Whether binding was seen depends on the method and setting. In cells and extracts the contact can be indirect. Binding can be weak; no strength is given.

The assay deals with T1, Parkin (murine platelets) (mouse (endogenous in platelets)) (UniProt Q9WVS6).
T1 sequence: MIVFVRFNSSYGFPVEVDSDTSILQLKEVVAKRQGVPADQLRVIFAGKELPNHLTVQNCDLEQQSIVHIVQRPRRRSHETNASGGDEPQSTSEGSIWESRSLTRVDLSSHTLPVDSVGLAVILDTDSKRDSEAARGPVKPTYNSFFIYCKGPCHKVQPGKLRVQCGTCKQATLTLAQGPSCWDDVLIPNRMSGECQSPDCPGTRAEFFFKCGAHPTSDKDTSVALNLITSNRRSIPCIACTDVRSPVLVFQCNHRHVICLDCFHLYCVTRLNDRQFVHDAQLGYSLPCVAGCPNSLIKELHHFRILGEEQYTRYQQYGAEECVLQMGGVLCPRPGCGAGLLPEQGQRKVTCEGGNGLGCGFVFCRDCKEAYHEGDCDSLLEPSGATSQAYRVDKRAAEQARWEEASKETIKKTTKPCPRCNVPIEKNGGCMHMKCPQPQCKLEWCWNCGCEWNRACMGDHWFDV
The assay is described as follows: co-IP; 500 ug pooled murine platelet lysates (3 WT, 5 DM) with specific antibody overnight at 4 °C, protein A/G sepharose beads, Western blot, 10% input. For orientation: In western blotting, separated proteins are transferred to a membrane and probed.

With “14-3-3 (murine platelets) (mouse (endogenous in platelets))”, the binding entry is recorded as “binds”.

Values taken from paper PMC7461561.
